Primary screen of a compound library

Sequences of proteins named here, by UniProt entry; tags and fusion partners are left off. Residues count along the entry.
UniProt P9WNZ1, whole entry: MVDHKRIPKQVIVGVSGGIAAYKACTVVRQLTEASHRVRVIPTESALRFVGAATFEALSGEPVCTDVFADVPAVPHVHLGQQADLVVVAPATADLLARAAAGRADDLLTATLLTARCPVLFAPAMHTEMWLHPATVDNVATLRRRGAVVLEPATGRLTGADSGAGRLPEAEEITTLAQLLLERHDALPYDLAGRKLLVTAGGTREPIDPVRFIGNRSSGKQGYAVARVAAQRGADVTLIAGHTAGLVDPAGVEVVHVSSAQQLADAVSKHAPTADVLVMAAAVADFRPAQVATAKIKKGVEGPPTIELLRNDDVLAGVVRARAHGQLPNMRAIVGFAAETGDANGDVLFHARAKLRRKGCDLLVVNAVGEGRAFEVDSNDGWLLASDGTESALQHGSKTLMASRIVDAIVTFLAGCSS
UniProt I6X8D2, whole entry: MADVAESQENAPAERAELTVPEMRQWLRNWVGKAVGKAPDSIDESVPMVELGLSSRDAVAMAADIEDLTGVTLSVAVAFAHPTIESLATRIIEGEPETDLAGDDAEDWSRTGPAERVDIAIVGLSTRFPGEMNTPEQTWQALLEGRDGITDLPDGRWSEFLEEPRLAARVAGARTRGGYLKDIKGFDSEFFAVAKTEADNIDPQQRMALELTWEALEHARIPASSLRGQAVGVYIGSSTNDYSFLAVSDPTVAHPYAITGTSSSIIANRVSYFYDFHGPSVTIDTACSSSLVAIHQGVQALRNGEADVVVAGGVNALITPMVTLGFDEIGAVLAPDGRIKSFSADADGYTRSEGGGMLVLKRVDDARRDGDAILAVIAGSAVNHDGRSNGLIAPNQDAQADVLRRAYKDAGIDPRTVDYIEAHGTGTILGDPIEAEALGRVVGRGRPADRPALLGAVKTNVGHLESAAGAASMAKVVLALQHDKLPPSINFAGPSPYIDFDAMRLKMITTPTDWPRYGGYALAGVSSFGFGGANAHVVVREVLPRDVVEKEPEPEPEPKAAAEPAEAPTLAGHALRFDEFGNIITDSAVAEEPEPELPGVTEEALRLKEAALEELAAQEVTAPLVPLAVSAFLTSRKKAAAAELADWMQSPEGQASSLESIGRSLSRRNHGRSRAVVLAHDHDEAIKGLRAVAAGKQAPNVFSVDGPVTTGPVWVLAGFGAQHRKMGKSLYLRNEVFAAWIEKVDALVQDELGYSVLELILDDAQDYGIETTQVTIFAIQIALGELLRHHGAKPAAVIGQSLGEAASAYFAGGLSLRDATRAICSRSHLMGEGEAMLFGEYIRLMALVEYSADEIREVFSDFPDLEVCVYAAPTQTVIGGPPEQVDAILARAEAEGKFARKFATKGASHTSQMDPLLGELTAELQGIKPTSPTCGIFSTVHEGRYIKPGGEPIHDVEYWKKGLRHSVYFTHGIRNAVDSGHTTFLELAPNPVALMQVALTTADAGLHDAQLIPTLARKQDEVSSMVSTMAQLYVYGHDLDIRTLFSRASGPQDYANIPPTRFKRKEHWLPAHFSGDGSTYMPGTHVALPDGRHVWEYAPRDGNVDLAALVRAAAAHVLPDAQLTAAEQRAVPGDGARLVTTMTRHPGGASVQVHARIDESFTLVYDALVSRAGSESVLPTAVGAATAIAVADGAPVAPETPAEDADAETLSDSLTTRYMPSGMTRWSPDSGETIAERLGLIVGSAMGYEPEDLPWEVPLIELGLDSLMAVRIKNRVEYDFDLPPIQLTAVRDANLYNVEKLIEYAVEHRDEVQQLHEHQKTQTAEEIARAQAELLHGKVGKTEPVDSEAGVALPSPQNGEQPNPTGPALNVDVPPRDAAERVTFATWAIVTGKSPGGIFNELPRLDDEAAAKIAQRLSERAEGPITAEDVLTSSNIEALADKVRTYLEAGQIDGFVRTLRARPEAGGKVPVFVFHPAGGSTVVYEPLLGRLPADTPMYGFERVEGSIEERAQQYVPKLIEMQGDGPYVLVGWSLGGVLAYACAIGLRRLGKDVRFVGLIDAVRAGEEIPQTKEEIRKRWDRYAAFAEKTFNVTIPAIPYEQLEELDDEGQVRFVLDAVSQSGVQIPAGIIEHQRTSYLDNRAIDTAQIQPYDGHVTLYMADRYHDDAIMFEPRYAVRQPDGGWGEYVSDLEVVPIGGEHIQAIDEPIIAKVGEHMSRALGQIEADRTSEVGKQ
UniProt P9WFT3, whole entry: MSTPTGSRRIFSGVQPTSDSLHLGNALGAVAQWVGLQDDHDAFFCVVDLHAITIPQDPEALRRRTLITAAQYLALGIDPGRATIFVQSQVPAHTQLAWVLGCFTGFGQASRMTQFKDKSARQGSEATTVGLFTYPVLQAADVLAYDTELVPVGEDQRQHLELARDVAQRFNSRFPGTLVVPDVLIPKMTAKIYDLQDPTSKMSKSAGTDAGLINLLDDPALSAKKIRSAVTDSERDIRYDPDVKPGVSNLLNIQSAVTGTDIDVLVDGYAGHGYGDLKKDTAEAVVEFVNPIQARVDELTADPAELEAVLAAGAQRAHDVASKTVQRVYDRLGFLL
UniProt A4I591, 1-473: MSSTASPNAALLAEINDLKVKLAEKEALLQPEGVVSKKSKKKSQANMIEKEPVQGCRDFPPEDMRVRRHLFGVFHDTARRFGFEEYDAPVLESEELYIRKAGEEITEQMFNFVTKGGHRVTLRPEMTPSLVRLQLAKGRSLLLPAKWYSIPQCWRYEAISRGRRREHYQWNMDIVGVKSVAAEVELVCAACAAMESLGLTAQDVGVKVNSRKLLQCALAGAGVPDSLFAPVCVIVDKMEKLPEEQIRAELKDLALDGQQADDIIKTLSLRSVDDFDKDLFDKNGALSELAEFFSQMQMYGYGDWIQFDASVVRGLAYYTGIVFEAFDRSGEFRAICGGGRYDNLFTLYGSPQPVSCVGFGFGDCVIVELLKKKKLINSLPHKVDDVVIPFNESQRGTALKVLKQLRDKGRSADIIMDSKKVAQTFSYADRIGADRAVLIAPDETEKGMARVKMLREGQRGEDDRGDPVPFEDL

Measurements from “University of Dundee, Small-Polar-MMV Screening Library” (2021), ChEMBL document CHEMBL3988442.

A: 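Enzyme assay of CoaBC with a phosphate dye (Biomol Green) read at 650 nm. Target: Coenzyme A biosynthesis protein CoaBC, Mycobacterium tuberculosis (UniProt P9WNZ1). Compounds at 30 µM. Direction is inferred from only a few compounds that gave an IC50; most scored high, so higher reads as stronger inhibition. Most strong results did not repeat in a second test. About 67,000 compounds were tested under these conditions; 0.06% (about 40) showed 50% or more at least once.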
B: 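Enzyme assay of the thioesterase domain of polyketide synthase 13; the read-out is not stated. Target: Polyketide synthase Pks13, Mycobacterium tuberculosis (UniProt I6X8D2). Concentration: 30 µM. Higher reads as stronger inhibition (inferred from which compounds were picked for retests). Of about 67,000 compounds tested this way, about 300 (0.46%) reached 50% or more in at least one test.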
C: 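Tryptophan-tRNA ligase, Mycobacterium tuberculosis (UniProt P9WFT3). Enzyme assay of tryptophanyl-tRNA synthetase; the read-out is not stated. Compounds at 10 µM. Direction is not recorded; retested compounds ran higher, which suggests that high means inhibition. About 65,000 compounds were tested under these conditions; 0.098% (about 64) showed 50% or more at least once.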
D: 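Histidine-tRNA ligase, Leishmania infantum (UniProt A4I591). Enzyme assay of histidyl-tRNA synthetase; the read-out is not stated. Concentration: 30 µM. Higher reads as stronger inhibition (inferred: compounds with an IC50 in retests scored well above the rest). The assay is labelled LdHisRS but filed under L. infantum. Of about 69,000 compounds tested this way, about 410 (0.6%) reached 50% or more in at least one test.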

Results are given as percent effect. The record does not define 0% and 100%; most values in the screen are far below 50% and negative numbers occur (in some assays of this library far below -100). Compounds were drawn at random from those tested, without regard to their results. A dash means the value is not listed here; it may have been measured.

| structure | A | B | C | D |
|---|---|---|---|---|
| `O=S(=O)(N1CCOCC1)N1CCOC(CCc2ccccc2)C1` (configuration not stated) | 3.478 | -25.13 | -0.289 | 2.618 |
| `CC(CN1CCOCC1)NC(=O)N1CCCC1` (configuration not stated) | -9.218 | -11.68 | -3.635 | 8.333 |
| `COc1ccc(C(C)NCc2scnc2C)cc1Cn1cccn1` (configuration not stated) | 1.025 | -13.99 | -6.498 | 7.143 |
| `Cc1nc(CN2CCc3ncnc(-c4ccccc4)c3CC2)cs1` | -1.269 | -10.49 | -5.679 | 17.65 |
| `c1ccc(NC[C@@H]2CCC[C@@H]3CN(Cc4cccnc4)C[C@@H]32)nc1` | 4.348 | -17.41 | 3.562 | 10.96 |
| `Cc1ccoc1C(=O)N1CC[C@@]2(C[C@H](NS(C)(=O)=O)CCO2)C1` | 4.684 | 0.6582 | -1.803 | 7.895 |
| `Cc1ccoc1C(=O)NCCOc1ccc(C(F)(F)F)cn1` | 11.41 | 7.378 | 5.649 | 17.65 |
| `Cc1ccc2c(n1)N(CC1CC1)CCN(C(=O)c1ccncc1F)C2` | 2.256 | -0.6189 | -1.66 | 15.38 |
| `CCC(NCc1ccccc1C)c1ccccc1OCC(=O)NC` (configuration not stated) | 0.3984 | 0.467 | 10.22 | 35.62 |
| `COc1ccc(CN2CCC3(CC2)CCN(CC2CC2)C3=O)cc1` | 5.079 | -13.13 | 0.687 | 21.95 |
| `COc1ccc(OCCN(C)S(=O)(=O)N2CCOCC2)cc1` | 0.9677 | -21.49 | 0.457 | 17.11 |
| `O=C1COC2(CCN(Cc3ccncc3)CC2)CN1` | 4.511 | -8.66 | 2.075 | 20.51 |
| `COc1cc(NC2CCS(=O)(=O)CC2)ncn1` | -0.6329 | -3.415 | 5.982 | 22.89 |
| `Cc1cc(NC(=O)N(CCC#N)CCCN(C)C)ccc1F` | -10 | -23.51 | -2.236 | 12.82 |
| `CCn1c(N)nc2cc(C(=O)NCc3ccccc3Cl)cnc21` | 1.066 | -11.6 | -2.067 | 23.08 |
| `Cc1nsc(NC(=O)N2CCc3sccc3C2)n1` | 0.361 | 3.885 | 2.494 | 6.742 |
| `Cc1ncsc1C(=O)NCCN1CCCCCC1=O` | -1.129 | -3.358 | -1.071 | 8.434 |
| `CN1CCCC1CNC(=O)CCCOCc1ccccc1` (configuration not stated) | 0.7979 | -5.111 | 0.6289 | 15.2 |
| `COc1ccc(OCC(=O)NS(=O)(=O)c2ccc(Br)s2)cc1` | -2.949 | -6.029 | 12.44 | -3.419 |
| `Cn1cc(CC2CC(=O)N(Cc3ccccc3OC(F)F)C2=O)cn1` (configuration not stated) | 8.178 | -6.688 | -3.482 | 0.885 |
| `Cn1cccc1C(=O)N1C[C@@H]2C[C@@H](c3nc(C4CC4)cs3)O[C@@H]2C1` | 6.624 | - | 3.475 | 22.34 |
| `CN1CCC[C@H]1c1nc(-c2cncnc2N)no1` | 5.96 | - | -4.325 | 6.757 |
| `Cn1ncc2c(N[C@H]3CC[C@@H](N)CC3)nc(C(C)(C)C)nc21` | 1.845 | 4.641 | -3.336 | 16.13 |
| `Cc1cc(C(F)(F)F)nc(N2CCN3CCCC3C2)n1` (configuration not stated) | 3.641 | -0.8675 | 2.016 | 2.381 |
| `CC(C)(C)n1ncc(NCC(O)c2ccccc2C(F)(F)F)c(Cl)c1=O` (configuration not stated) | 5.724 | -9.687 | 6.065 | 18.09 |
| `Cc1nccn1CCCC(=O)N1CCC2(CCC(=O)N(C(C)C)C2)CC1` | 5.387 | -1.83 | 4.516 | 22.34 |
| `COCC(=O)NCC1Cn2nnc(-c3ccoc3)c2CO1` (configuration not stated) | - | -0.6723 | -2.05 | 5.172 |
| `Cc1cc(C)c(CNC(=O)N2CCN(c3cnccn3)CC2)c(=O)[nH]1` | 0 | -10.37 | -0.4717 | 29.6 |
| `CCOc1cccc(COC(=O)c2cc(Cl)ccn2)n1` | - | 3.287 | 4.128 | 17.5 |
| `CCc1c(C(=O)N2CCCN(C(C)=O)CC2)cnn1C(C)(C)C` | 15.19 | -14.35 | -2.047 | 31.82 |
| `CC(C)CN1CCC(NC(=O)c2ccc(F)cc2Cl)CC1` | 1.786 | -16.72 | 0.7638 | 16.05 |
| `CCNC(c1cccnc1)c1ccc(F)c(C)c1` (configuration not stated) | -1.366 | -8.827 | -4.023 | 7.018 |
| `O=C(COCC(F)(F)C(F)F)N1CCC2(CCCN(CC3CC3)C2=O)C1` (configuration not stated) | - | -31.1 | -1.445 | 17.5 |
| `Cc1cc(N(C)C)nc(N2CC(n3cccn3)C2)n1` | 2.927 | -10.51 | 1.358 | 16.67 |
| `O=C(O)c1cc(NS(=O)(=O)c2ccccc2F)ccc1N1CCSCC1` | 7.582 | -4.309 | -5.235 | 24.29 |
| `CC(=O)N1CCCN(C(C(=O)O)c2ccccc2OC(F)(F)F)CC1` (configuration not stated) | 6.971 | -23.51 | -0.4182 | 16.46 |
| `COc1ccc(C2=NOC(CO)C2)cc1` (configuration not stated) | 1.531 | -10.85 | 0.3819 | 1.235 |
| `Cc1noc(C)c1-c1cc(CCC2CN(CCC(N)=O)CCO2)ncn1` (configuration not stated) | -7.152 | 20.19 | -2.77 | 7.042 |
| `CCOc1ccc(CC(CNC(=O)c2ccoc2C)C(N)=O)cc1` (configuration not stated) | 8.423 | -17.67 | 0.5696 | 8.264 |
| `CC(=O)Nc1ccn(Cc2ccccc2)n1` | 2.806 | -18.26 | 2.083 | 12.9 |
| `CCNC(=O)N1C[C@@H]2OCC(=O)N(C)[C@@H]2C1` | 6.09 | -0.009105 | 9.077 | 13.51 |
| `O=C(C[S+]([O-])Cc1cccc(Cl)c1)NC1CCCC1` (configuration not stated) | -5.882 | -30.18 | -0.1235 | 24.44 |
| `NCCn1nc(C2CCN(Cc3ccccc3)C2)c2nccnc21` (configuration not stated) | 9.542 | -22.89 | - | 34 |
| `CCOc1ccccc1CNCC1CCN(CC(C)O)CC1` (configuration not stated) | 2.558 | -10.75 | 1.248 | 16.51 |
| `CCn1cc(NC(=O)NCCN2CCCc3ccccc32)cn1` | 2.39 | -14.2 | 0.9524 | 17.7 |
| `CCS(=O)(=O)N1CCC2(CC1)CCn1c(-c3cnn(C)c3)cnc12` | 0.9662 | 7.061 | -6.182 | 15.15 |
| `CCc1nc(C)c(CN2CCN(c3ncnc4scc(C)c34)CC2)[nH]1` | 1.485 | - | -0.899 | 12 |
| `O=C(NCC(O)CO)Nc1cc(Br)ccc1F` (configuration not stated) | 0.6148 | -18.83 | 5.054 | 12.86 |
| `Cn1ccnc1CN1CCN(CC(O)c2ccc(F)cc2)CC1` (configuration not stated) | 2.611 | -9.211 | 0.3762 | 15.04 |
| `O=S(=O)(c1ccc(F)c(F)c1)n1cc(Cl)cn1` | -2.184 | 23.24 | -2.592 | 7.143 |
| `Cc1cc(C(=O)N2C[C@H]3CC[C@@H]2CN(Cc2ccccn2)C3)nc(C)n1` | -0.3628 | -8.69 | 3.857 | 14.52 |
| `CNC(=O)[C@@H](C1CCCCC1)N1CCC[C@H]1C(=O)N(C)CCN(C)C` | 8.804 | 5.526 | -0.5271 | 8.333 |
| `Cc1cc(Cl)cc(C)c1CNC1CCN(CC(=O)N(C)C)CC1` | - | -26.54 | 1.135 | 11.43 |
| `CCc1cc(CNC(=O)NCC(c2ccco2)N2CCCC2)[nH]n1` (configuration not stated) | -2.146 | -10.28 | -3.782 | 4.918 |
| `N#Cc1ccc(OCCN2CCNC(=O)C2c2cccs2)cc1` (configuration not stated) | 15.6 | -12.09 | 0.75 | 15.05 |
| `CC(=O)c1cn(CCC(=O)NCCC(=O)O)c2ccccc12` | -3.634 | -9.109 | -3.819 | 15.53 |
| `Cc1noc(C)c1CN1CC[C@H]2C[C@H](c3nccs3)O[C@@H]2C1` | 5.477 | -10.91 | 0.9931 | 8.257 |
| `CN(C(=O)CCc1ccncc1)C1CCCN(CCc2ccccc2)C1` (configuration not stated) | 1.288 | - | -6.772 | 6.557 |
| `Cn1ncc2c(NCC(=O)N3CCNCC3)nc(C(C)(C)C)nc21` | -6.143 | -4.834 | 2.692 | 17.2 |
| `Cc1nc(N(C)C)nc(NCCc2ccccn2)c1C` | 6.446 | -10.79 | 3.524 | 22.45 |
| `CCOC(=O)[C@]12CCCN(Cc3cccs3)C[C@H]1CN(CCOC)C2` | 2.303 | -19.42 | - | 5.769 |
| `CC(C1CC1)N(CC(=O)NC(=O)NC1CC1)C1CC1` (configuration not stated) | 3.481 | -30.13 | 0.07788 | 9.091 |
| `Cc1nccn1[C@@H]1CC[C@@H](N(C)S(=O)(=O)c2cccc(F)c2)[C@H]1O` | 3.148 | -4.67 | -0.9791 | 9.79 |
| `Cc1nn(C)cc1C(=O)N1CCCn2nc(CN3CC[C@H](F)C3)cc2C1` | 1.703 | -4.318 | 2.687 | 15.56 |

For reference, 5 entries once more:

structure	A	B	C	D
COc1cc(NC2CCS(=O)(=O)CC2)ncn1	-0.6329	-3.415	5.982	22.89
CCC(NCc1ccccc1C)c1ccccc1OCC(=O)NC (configuration not stated)	0.3984	0.467	10.22	35.62
CC(CN1CCOCC1)NC(=O)N1CCCC1 (configuration not stated)	-9.218	-11.68	-3.635	8.333
O=S(=O)(N1CCOCC1)N1CCOC(CCc2ccccc2)C1 (configuration not stated)	3.478	-25.13	-0.289	2.618
CNC(=O)[C@@H](C1CCCCC1)N1CCC[C@H]1C(=O)N(C)CCN(C)C	8.804	5.526	-0.5271	8.333